Source: US20200261440A1, “ZINC IONOPHORES AND USES THEREOF” (THE UNIVERSITY OF QUEENSLAND, priority 2017, published 2020)
At least one compound was matched to its structure with a doubt left.

System: GAS
Test: Murine wound infection model
Type: in vivo, BALB/c mice
Conditions: 4 days

SMILES: CN(C)[C@@H]1C(O)=C(C(N)=O)C(=O)[C@@]2(O)C(O)=C3C(=O)c4c(O)cccc4[C@@](C)(O)[C@H]3C[C@@H]12 [Tetracycline, tetracycline]
- bacterial burden at the site of infection (CFUs) (1.5% tetracycline in combination with 2 mM PBT2 + 25 mM ZnSO4, ointment twice daily): significantly reducing infection
- bacterial burden at the site of infection (CFUs) (treatment alone: 2 mM PBT2 + 25 mM ZnSO4, or 1.5% tetracycline, ointment twice daily): Neither antibiotic nor sub-inhibitory concentrations of PBT2+zinc(II) ions alone reduced bacterial burden
